# These are yes or no findings as the source states them, for the method shown.
# Biological target: mLptA (E. coli), LptA(25-185) E39V M47A R76A (E. coli (ATCC 25922)) (UniProt P0ADV1)
# Assay: SEC-MALS; purified Lpt proteins and their mixtures (figs. S4 and S5); both purified
binder,measurement,value
"mLptA (E. coli), LptA(25-185) E39V M47A R76A (domain or fragment, UniProt P0ADV1 25-185) GAFAVTGDTDQPIHIVSDQQSLDAQGNVVTFTGNVIVTQGTIKINADKVVVTAPGGEQGKEVIDGYGKPATFYQMQDNGKPVEGHASQMHYELAKDFVVLTGNAYLQQVDSNIKGDKITYLVKEQKMQAFSDKGKRVTTVLVPSQLQDKNNKGQTPAQKKGN",binding,no binding

# — PMC10208570, “Peptidomimetic antibiotics disrupt the lipopolysaccharide transport bridge of drug-resistant Enterobacteriaceae” (Science Advances, 2023)
